Source: the supplement of paper PMC12259267, “Disruption of the KLHL37–N-Myc complex restores N-Myc degradation and arrests neuroblastoma growth in mouse models” (The Journal of Clinical Investigation, 2025)
Where a name gives a salt, the structure may show the parent alone. The list shows a part of the results. Repeats are few or missing, and single values can be far off.

Tested on: SK-N-BE(2)
Assay: inhibition of N-Myc immunofluorescence signal per cell relative to control (fraction); higher = stronger N-Myc protein reduction
Details: 1 µM; 9 h

SMILES	inhibition of N-Myc immunofluorescence signal per cell
c1cncc(C2Nc3ccccc3-n3cccc32)c1 (stereo not drawn)	0.0708
CC1=C(O)C(=O)C=C2C1=CC=C1[C@@]2(C)CC[C@@]2(C)[C@@H]3C[C@](C)(C(=O)O)CC[C@]3(C)CC[C@]12C [Tripterin]	0.175
O=C(O)CNC(=O)c1c(O)c2ccccc2n(Cc2ccccc2)c1=O	-0.063
C[S+]([O-])CCCCN=C=S (stereo not drawn) [Sulforaphane]	0.278
COc1cc(C)[nH]c(=O)c1CNC(=O)c1c(C)n([C@H](C)C2CCOCC2)c2ccccc12	0.0249
Cc1cc2c(C(C)C)c(O)c(O)c(C=O)c2c(O)c1-c1c(C)cc2c(C(C)C)c(O)c(O)c(C=O)c2c1O [Gossypol]	-0.0819
c1ccc([C@@H]2C[C@H]2NC2CCNCC2)cc1 [GSK-LSD1 (dihydrochloride)]	-0.244
Cc1sc2c(c1C)C(c1ccc(Cl)cc1)=N[C@@H](CC(=O)OC(C)(C)C)c1nnc(C)n1-2	0.347
O=C(O)CNC(=O)C1C(=O)N(C2CCCCC2)C(=O)N(C2CCCCC2)C1=O [Daprodustat]	-0.172
C[C@@H]1CC[C@]2(NC1)O[C@H]1C[C@H]3[C@@H]4CC=C5C[C@@H](O)CC[C@]5(C)[C@H]4CC[C@]3(C)[C@H]1[C@@H]2C [Solasodine]	0.0695
CC(=O)OC(C)(C)/C=C/C(=O)[C@](C)(O)[C@H]1[C@H](O)C[C@@]2(C)[C@@H]3CC=C4[C@H](C[C@H](O)C(=O)C4(C)C)[C@]3(C)C(=O)C[C@]12C [Cucurbitacin B]	0.579
Cn1c(CCCCCCC(=O)NO)nc2cc(N(CCCl)CCCl)ccc21	-0.0731
N[C@@H](CNC(=O)C(=O)O)C(=O)O [Dencichine]	0.0506
CN(C)NC(=O)CCC(=O)O [Daminozide]	0.127
Cc1cc(C(=O)CN2CCCC2)c(C)n1-c1ccc(F)cc1	0.0499
CC(=O)N[C@H]1[C@@H](O[C@@H]2O[C@H](CC(O)[C@H]3O[C@@H](n4ccc(=O)[nH]c4=O)[C@H](O)[C@@H]3O)[C@H](O)[C@H](O)[C@H]2NC(=O)/C=C/CC(C)C)O[C@H](CO)[C@@H](N)[C@@H]1O (stereo partly drawn) [Tunicamycin]	0.107
CCCCCCCCCCCCCCC(Br)C(=O)O (stereo not drawn)	0.0216
C[C@H]1CC[C@]2(NC1)O[C@H]1C[C@H]3[C@@H]4CC[C@H]5C[C@@H](O[C@@H]6O[C@H](CO)[C@H](O[C@@H]7O[C@H](CO)[C@@H](O)[C@H](O[C@@H]8OC[C@@H](O)[C@H](O)[C@H]8O)[C@H]7O[C@@H]7O[C@H](CO)[C@@H](O)[C@H](O)[C@H]7O)[C@H](O)[C@H]6O)CC[C@]5(C)[C@H]4CC[C@]3(C)[C@H]1[C@@H]2C [Tomatine]	-0.0411

5 entries from above, as comma-separated lines:
SMILES,inhibition of N-Myc immunofluorescence signal per cell
O=C(O)CNC(=O)c1c(O)c2ccccc2n(Cc2ccccc2)c1=O,-0.063
C[S+]([O-])CCCCN=C=S (stereo not drawn) [Sulforaphane],0.278
COc1cc(C)[nH]c(=O)c1CNC(=O)c1c(C)n([C@H](C)C2CCOCC2)c2ccccc12,0.0249
Cc1cc2c(C(C)C)c(O)c(O)c(C=O)c2c(O)c1-c1c(C)cc2c(C(C)C)c(O)c(O)c(C=O)c2c1O [Gossypol],-0.0819
c1ccc([C@@H]2C[C@H]2NC2CCNCC2)cc1 [GSK-LSD1 (dihydrochloride)],-0.244
